Reference: article PMC5356829
Results are given in words; binding and its absence hold for the method and conditions named. Binding seen in cells or lysates may run through a third protein. Here binding means that the protein was enriched with, or labelled near, the bait; the list need not be complete. A no says only that the protein was not detected with the bait.

Protein sequences, listed by entry. Tags and fused reporters are not part of them. Lines headed by an entry give the natural chain unless they say otherwise; changes in a name come on top. Chains listed by the source or under a name are the forms on record and can include a tag or linker. Residues count along the entry.
UniProt P23511: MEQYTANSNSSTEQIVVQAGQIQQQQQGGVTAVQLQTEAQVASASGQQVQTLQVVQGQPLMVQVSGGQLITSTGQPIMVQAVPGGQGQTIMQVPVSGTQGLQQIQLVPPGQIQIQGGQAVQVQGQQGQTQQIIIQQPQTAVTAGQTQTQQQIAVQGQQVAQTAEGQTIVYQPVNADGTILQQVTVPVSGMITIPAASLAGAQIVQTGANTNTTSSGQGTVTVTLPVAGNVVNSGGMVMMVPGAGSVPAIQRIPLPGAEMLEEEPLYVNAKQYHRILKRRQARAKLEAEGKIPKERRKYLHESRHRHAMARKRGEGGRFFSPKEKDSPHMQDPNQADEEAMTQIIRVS
lamin A (endogenous) (P02545, residues 1-646): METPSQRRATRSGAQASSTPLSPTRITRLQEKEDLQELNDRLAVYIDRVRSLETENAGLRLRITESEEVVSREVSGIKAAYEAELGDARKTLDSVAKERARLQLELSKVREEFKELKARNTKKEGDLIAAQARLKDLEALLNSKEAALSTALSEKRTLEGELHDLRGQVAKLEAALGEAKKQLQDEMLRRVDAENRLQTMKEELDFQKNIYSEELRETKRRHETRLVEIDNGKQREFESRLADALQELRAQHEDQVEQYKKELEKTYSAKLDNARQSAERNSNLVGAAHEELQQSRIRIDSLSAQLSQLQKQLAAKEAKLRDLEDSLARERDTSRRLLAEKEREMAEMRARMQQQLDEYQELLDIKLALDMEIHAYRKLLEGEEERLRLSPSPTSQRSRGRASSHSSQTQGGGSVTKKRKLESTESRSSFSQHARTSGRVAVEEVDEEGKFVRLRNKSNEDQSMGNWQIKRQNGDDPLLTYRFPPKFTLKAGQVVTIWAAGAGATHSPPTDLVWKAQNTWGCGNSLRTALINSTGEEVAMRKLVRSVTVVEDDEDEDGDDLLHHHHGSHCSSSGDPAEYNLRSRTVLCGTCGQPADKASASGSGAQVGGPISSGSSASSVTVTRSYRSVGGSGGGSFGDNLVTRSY
lamin C (endogenous) (P02545-2, form named): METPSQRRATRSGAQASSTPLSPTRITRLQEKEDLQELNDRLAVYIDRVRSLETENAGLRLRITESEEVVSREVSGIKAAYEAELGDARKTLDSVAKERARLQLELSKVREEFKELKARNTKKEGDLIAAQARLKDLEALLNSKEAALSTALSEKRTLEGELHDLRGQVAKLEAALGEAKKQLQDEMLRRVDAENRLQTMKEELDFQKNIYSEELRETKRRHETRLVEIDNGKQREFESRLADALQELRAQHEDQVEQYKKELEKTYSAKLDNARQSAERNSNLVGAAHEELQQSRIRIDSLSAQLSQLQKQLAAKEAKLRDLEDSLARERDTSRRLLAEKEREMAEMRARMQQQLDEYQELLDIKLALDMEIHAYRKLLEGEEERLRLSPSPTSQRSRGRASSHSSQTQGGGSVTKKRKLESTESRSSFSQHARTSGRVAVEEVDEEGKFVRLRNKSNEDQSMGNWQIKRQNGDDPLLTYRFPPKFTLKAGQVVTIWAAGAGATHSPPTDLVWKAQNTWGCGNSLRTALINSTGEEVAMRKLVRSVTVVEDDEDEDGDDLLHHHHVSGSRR

Target: NF-YA, long isoform, overexpressed in SKBR3 cells (UniProt P23511)
Test: affinity purification with mass spectrometry; lysates (2 mg/sample) of SKBR3 cells overexpressing long NF-YA, precipitated 4 h at 4 °C with anti-NF-YA polyclonal antibody cross-linked to protein G; bands cut from SDS-PAGE gel, MALDI-MS and MS/MS

Substance | binding
lamin A (endogenous) (from UniProt P02545 1-646) | binds
lamin C (endogenous) (from UniProt P02545-2 1-572) | no binding
